Literature values in patent US20080051430A1, “Acylated Piperidine Derivatives as Melanocortin 4-Receptor Agonists” (priority 2004, published 2008).
Some entries share one result that the patent states for a list of compounds. Some ranges recur; such a range may be that of the whole group of compounds.

Details: drug compared to placebo

**Q.** With `CC(C)CC(N(C)C)C1(c2ccc(Cl)cc2)CCC1` (stereo not drawn) [sibutramine] as the molecule, how does the weight loss read?
**A.** 5%-10%

**Q.** Which weight loss does the source give for `CC(C)(N)Cc1ccccc1` [phentermine] here?
**A.** 5%-10%

**Q.** For `CCN[C@@H](C)Cc1cccc(C(F)(F)F)c1` [dexfenfluramine], which weight loss is on record?
**A.** 5%-10%
